## Primary screen of a compound library

Measurements from “University of Dundee, Small-Polar-MMV Screening Library” (2021), ChEMBL document CHEMBL3988442.

A: 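Growth of Mycobacterium tuberculosis over 4 days (cholesterol / DPPC medium with tyloxapol); the read-out is not stated. Concentration: 500 µM. Higher reads as more growth inhibition (inferred: compounds with an IC50 in retests scored well above the rest). Size under these conditions: about 18,000 compounds, about 900 of them at 50% or above in at least one test.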
B: 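Whole-cell growth test on Mycobacterium tuberculosis, read after 3 days in glucose-containing 7H9 medium; the read-out is not stated. Concentration: 500 µM. Higher reads as more growth inhibition (inferred: compounds with an IC50 in retests scored well above the rest). Size under these conditions: about 18,000 compounds, about 1,400 of them at 50% or above in at least one test.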

Values are the deposited “Percent Effect”, in %.
How 0% and 100% were set is not recorded. Most values in the screen are low, and negative values occur.
This is an unselected part of the compounds tested.

Compound | A | B
Nc1nnc(SCC(=O)NCCOc2ccccc2)s1 | -6.734 | 8.457
Cc1ncsc1C(=O)N1CCOc2cccc(F)c2C1 | 3.13 | 45.05
C=C(C)COc1cccc(CNCCNC(C)=O)c1 | 30.43 | 35.13
CCC(N)c1cccc(OC)n1 (stereo not shown) | 3.144 | 3.267
COCCC1CN(C(=O)c2ccccc2C#N)CCO1 (stereo not shown) | 7.402 | 18.28
COCc1nc(C2CCN(C(=O)N(C)C)C2)no1 (stereo not shown) | -0.2266 | 6.612
CS(=O)(=O)N1CCC(CC(=O)NCc2ccccc2)C1 (stereo not shown) | -16.79 | 7.918
COCC(C)NC(=O)Cc1c(C)nn(C)c1C (stereo not shown) | -16.21 | -10.74
CCOC(=O)c1sc(NC(=O)CC)nc1C | 0.4116 | 2.986
COc1ccc2c(c1)[C@@H](O)CCC2 | 23.31 | 22.63
NC(=O)c1cccc(CNCc2ccccc2)c1 | -2.506 | -0.53
NC(=O)COc1ccccc1CNC1CCCC1 | 4.947 | 7.897
c1nc2c([nH]1)C1(CCOCC1)NCC2 | 6.857 | 6.373
CC(=O)c1cc(C(=O)NCCSC(F)(F)F)[nH]n1 | 55.94 | 60.82
CC(O)CN(C)S(=O)(=O)Cc1ccc(F)cc1F (stereo not shown) | 6.932 | 17.88
COCc1nc(C2COCCN2)no1 (stereo not shown) | 2.311 | -2.559
COc1ccc(S(=O)(=O)N2CC(NCC3CC3)C2)cc1 | 28.09 | 57.6
CCOC(=O)c1ccc(NS(=O)(=O)CC)cc1 | 8.932 | 20.51
CCc1ccc(CN(CC)[C@H]2COC[C@@H]2O)nc1 | 10.03 | 35.36
CC1CN(c2ccc(CN)cn2)CCO1 (stereo not shown) | -4.085 | -4.908
C[C@H](NC(=O)C1(C#N)CCCCC1)C(N)=O | 8.091 | 12.03
C[S+]([O-])c1nncn1CCCOc1cccc(Cl)c1 (stereo not shown) | 48.04 | 62.4
CC(=O)Nc1cccc(OCCNc2ccccn2)c1 | 20.28 | 45.08
COCCN(CC(N)=O)CC(=O)N(C)c1ccccc1 | -1.561 | 16.69
CN(CCc1ccncc1)Cc1ccc(N(C)C)nc1 | 14.42 | 9.609
Cc1n[nH]c(C2CCN(C(=O)c3cn[nH]c3)CC2)n1 | 12.95 | -1.545
COc1ccc(C)cc1NC(=O)NC1CCN(C)CC1 | 20.91 | 20.84
CC(C)C(=O)c1cnccc1NC(=O)C1CCCOC1 (stereo not shown) | 2.743 | 2.668
O=C(C1CCCN1)N1CCN(c2ccccc2F)CC1 (stereo not shown) | 27.93 | 30.1
COCCc1noc([C@@H]2CN(CC(C)C)C[C@H]2CO)n1 | -3.372 | 2.889
CC(C)[C@H]1CN(Cc2cncn2C)C[C@@H]1NC(=O)CO | -15.9 | -12.57
N#CCCn1ncc2c(NCc3cccs3)ncnc21 | 31.15 | 65.03
Cc1nc(C)c(CC(=O)NCC2CNCCO2)s1 (stereo not shown) | -23.06 | -3.318
CCC(=O)NCc1ccncc1OCC(F)(F)F | 9.55 | 5.664
NCCc1cccs1 | -14.01 | -1.023
c1ncn(-c2ccc(NCC3CCOCC3)cc2)n1 | 15.48 | 40.78
O=C(NC1CC1)c1cccc2ncccc12 | -0.5358 | 3.424
CCCn1nnc(NC(=O)c2ccccc2F)n1 | 62.03 | 67.09
NC(=O)CCN(C(=O)c1ccccc1)c1ccccc1 | 5.327 | 19.5
Cc1cccc(NCC(=O)NC2CCCCC2)n1 | 36.25 | 57.73
CCCNCCNC(=O)C(C)c1ccc(OC)cc1 (stereo not shown) | 6.011 | 17.36
NC(=O)COc1ccc(CNCCn2cccn2)cc1 | -15.39 | 0.6594
CC(C#N)OC(=O)c1cc(=O)[nH]c2ccccc12 (stereo not shown) | -25.61 | -1.58
CCc1nnc2n1CC(NC(=O)Cn1cccn1)CC2 (stereo not shown) | 3.936 | 5.453
CC(C)(C)OC(=O)N1CCOC(CN)C1 (stereo not shown) | -3.838 | 9.725
COCCN(C(=O)c1ccn(C)c(=O)c1)C1CCCC1 | 4.014 | 7.11
CCc1ccc(CN(CCO)Cc2nccn2C)nc1 | 32.16 | 29.68
COc1ccc(C)cc1C(=O)NCCCC(=O)N(C)C | 24.19 | 13.21
O=C(c1ccc(OCC2CC2)cc1)N1CC(O)C1 | 27.01 | 33.96
CNC(=O)C(C)(C)CNC(=O)Nc1ncc(C)cc1Br | -17.02 | -4.773
CC(C)(C(N)=O)c1ccc(-n2cc(CCO)cn2)cc1 | 21.5 | 15.03
O=C(Cn1cc(Br)ccc1=O)NCC1CCOC1 (stereo not shown) | -6.728 | 17.09
CNC(=O)CCN(C)c1cc([C@H]2C[C@H](N)C2)nc(N)n1 | -14.63 | -6.158

Some entries from above, unchanged:

{"compound": "NCCc1cccs1", "A": -14.01, "B": -1.023}
{"compound": "O=C(C1CCCN1)N1CCN(c2ccccc2F)CC1", "stereo": "stereo not shown", "A": 27.93, "B": 30.1}
{"compound": "C=C(C)COc1cccc(CNCCNC(C)=O)c1", "A": 30.43, "B": 35.13}